Measurements taken from patent US20220016115A1, “USP19 INHIBITORS FOR USE IN THERAPY” (ALMAC DISCOVERY LIMITED, priority 2018, published 2022).
At least one structure is not confirmed: it was looked up by name or label, or the drawing left a doubt.

Test system: diet-induced obese (DIO) mouse
Test: Diet-induced obesity mouse model: body weight, DEXA and carcass composition
Type: in vivo
Conditions: liraglutide 0.1 mg/kg sc bid
Procedure: To assess obesity and insulin resistance, a diet-induced obesity mouse model was used.
Male C57BL6/J mice were continuously provided with high-fat diet (D12451, 45% kcal as fat; Research Diets, New Jersey, USA) and filtered tap water ad libitum for the duration of the study. From day 0, mice were administered vehicle i.p. BID, USP19 inhibitor (ADC-141) i.p. BID at 5 mg/kg or 25 mg/kg, or positive control liraglutide 0.1 mg/kg s.c. BID. Mice were allocated to treatment groups to balance the groups on the basis of body weight, food and water intake prior to the start of treatment.
Body weight was measured daily. On Day 13, body composition was assessed by DEXA. On Day 15, fasting glucose and insulin levels were measured before and during an oral glucose tolerance test (OGTT) to assess improvements in glucose control. The OGTT was performed following an overnight fast. […] An OGTT was performed the following morning (approx. 16h post fast). Mice were dosed with vehicle or test compound (starting at 08.45) to a timed schedule 30 minutes prior to the administration of the glucose challenge (2.0 g/kg po). Blood samples were taken immediately prior to dosing (B1), immediately prior to glucose administration (B2) and 15, 30, 60 and 120 minutes after glucose administration.
After OGTT, mice were humanely killed and carcass composition was assessed. The carcass was weighed and stored frozen and the chemical composition of each carcass (fat, protein, water and ash) was determined using classical techniques. Carcass water was determined by freeze-drying the carcasses to constant weight for 2 weeks. Carcass fat was determined on samples of the dry powdered carcasses using a modified Soxhlet extraction protocol (petroleum ether at 40-60° C.) with a Tecator Soxtec 2050 system (Foss UK Ltd, Wheldrake, UK) according to the manufacturer's recommended protocol. Carcass protein was determined using a micro-Kjeldahl procedure on samples of the dry powdered carcasses using a Tecator 2012 digestion block and 2200 distilling unit (Foss UK Ltd). Residual carcass ash was determined by firing samples of the dry powdered carcasses at high temperatures using a muffle ashing furnace (Carbolite OAF 11/1). Repeat determinations of the chemical analysis parameters were performed if necessary (e.g. if the duplicate samples differed by more than 1%). Data for each body composition parameter (fat, protein, water and ash) was determined as g/carcass and % total. Final carcass weights were also analysed as a direct comparison.

[1] = ADC-141 25 mg/kg ip bid, vs vehicle

For `CCCCCCCCCCCCCCCC(=O)N[C@@H](CCC(=O)NCCCC[C@H](NC(=O)[C@H](C)NC(=O)[C@H](C)NC(=O)[C@H](CCC(N)=O)NC(=O)CNC(=O)[C@H](CCC(=O)O)NC(=O)[C@H](CC(C)C)NC(=O)[C@H](Cc1ccc(O)cc1)NC(=O)[C@H](CO)NC(=O)[C@H](CO)NC(=O)[C@@H](NC(=O)[C@H](CC(=O)O)NC(=O)[C@H](CO)NC(=O)[C@@H](NC(=O)[C@H](Cc1ccccc1)NC(=O)[C@@H](NC(=O)CNC(=O)[C@H](CCC(=O)O)NC(=O)[C@H](C)NC(=O)[C@@H](N)Cc1cnc[nH]1)[C@@H](C)O)[C@@H](C)O)C(C)C)C(=O)N[C@@H](CCC(=O)O)C(=O)N[C@@H](Cc1ccccc1)C(=O)N[C@H](C(=O)N[C@@H](C)C(=O)N[C@@H](Cc1c[nH]c2ccccc12)C(=O)N[C@@H](CC(C)C)C(=O)N[C@H](C(=O)N[C@@H](CCCNC(=N)N)C(=O)NCC(=O)N[C@@H](CCCNC(=N)N)C(=O)NCC(=O)O)C(C)C)[C@@H](C)CC)C(=O)O` [Liraglutide, liraglutide, reference compound], the “differences in body weights on the final day of the study” value (ADC-141 25 mg/kg ip bid) was ~13%, the “loss of fat as share of the total weight lost” value (ADC-141 25 mg/kg ip bid) was 60% and the “percent protein (percentage of total carcass mass), increase” value (ADC-141 25 mg/kg ip bid) was 5.7%. For the same molecule, the “reduction in carcass fat (g) from controls” value (ADC-141 25 mg/kg ip bid) was 17.4%, the “relative water content of the carcass (percentage of total carcass mass)” value (ADC-141 25 mg/kg ip bid) was “no effect” and the “carcass ash content (g)” value [1] was −11.6%. The “carcass protein content (g)” value [1] was −7.9%, the “carcass water content (g)” value [1] was −8.6% and the “reduction in fat mass compared to vehicle treated controls” value (DEXA Day 13, dose of USP19 inhibitor not printed at place) was 19%. For the same molecule, the “reduction of lean mass (g)” value (DEXA Day 13, vs vehicle) was 8%, the “fat mass % (percentage of total tissue mass)” value (DEXA, ADC-141 25 mg/kg ip bid) was “did not significantly change” and the “lean mass % (percentage of total tissue mass)” value (DEXA, ADC-141 25 mg/kg ip bid) was “did not significantly change”. For the same molecule, the “carcass weight compared to vehicle-treated controls” value (two weeks, ADC-141 25 mg/kg ip bid) was ~−12%, the “average weekly body weight gain” value (week 1, ADC-141 25 mg/kg ip bid, vs vehicle) was “significantly decreased” and the “average weekly body weight gain” value (week 2, ADC-141 25 mg/kg ip bid, vs vehicle) was “not week 2”.
